Source: patent US20170217914A1, “Novel Triarylethylene Compounds and Methods Using Same” (The Penn State Research Foundation, priority 2014, published 2017)
Some results were stated once for a whole list of compounds, not compound by compound.

What was measured:
[1] = system: MDA-MB-231 (ER-negative) human breast cancer cell line; experiment: MTT cell viability assay, MDA-MB-231 cells; conditions: 72 h, versus Ospemifene and Tamoxifen
[2] = system: MCF-7 (ER-positive) human breast cancer cell line; experiment: MTT cell viability assay, MCF-7 cells; conditions: 72 h, versus Ospemifene and Tamoxifen

In the case of COc1ccc(/C(=C(/CCNC(=O)Oc2ccccc2)c2ccccc2)c2ccccc2)cc1 [Compound 14, (Z)-Phenyl-4-(4-methoxyphenyl)-3,4-diphenylbut-3-enylcarbamate], the “cytotoxic activity” value [1] is reported as “relatively less effective” and the “cytotoxic activity” value [2] is reported as “relatively less effective”.
